According to patent publication US20240368263A1:
Substitutions are numbered along the chain they refer to. Results are given in words; binding and its absence hold for the method and conditions named. Some binding calls cover weakened binding; strength is not graded here.

T1: human TL1A (Fitzgerald, Prod. #30R-AT070) (human) (UniProt O95150)
T1 sequence (biotinylated with EZ-Link Sulfo-NHS-LC-Biotin where used as soluble antigen, looked up): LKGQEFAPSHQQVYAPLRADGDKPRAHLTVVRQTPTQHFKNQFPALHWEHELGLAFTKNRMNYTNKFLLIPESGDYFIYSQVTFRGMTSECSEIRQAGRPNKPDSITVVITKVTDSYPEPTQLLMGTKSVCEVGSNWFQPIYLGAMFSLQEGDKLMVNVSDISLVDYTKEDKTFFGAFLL

T2: TL1A (epitope binning studies) (UniProt O95150)
T2 sequence (looked up): T1 sequence (biotinylated with EZ-Link Sulfo-NHS-LC-Biotin where used as soluble antigen, looked up)

B1: clone 17L, IgG2 / kappa (antibody)
heavy: QVQLVQSGAEVKKPGASVKVSCKASGFDIQDTYMHWVRQAPGQGLEWMGRIDPASGHLKYDPKFQVRVTMTRDTSTSTVYMELSSLRSEDTAVYYCARSGGLPDMWGQGTTVTVSSASTKGPSVFPLAPCSRSTSESTAALGCLVKDYFPEPVTVSWNSGALTSGVHTFPAVLQSSGLYSLSSVVTVPSSNFGTQTYTCNVDHKPSNTKVDKTVERKCCVECPPCPAPPVAGPSVFLFPPKPKDTLMISRTPEVTCVVVDVSHEDPEVQFNWYVDGVEVHNAKTKPREEQFNSTFRVVSVLTVVHQDWLNGKEYKCKVSNKGLPAPIEKTISKTKGQPREPQVYTLPPSREEMTKNQVSLTCLVKGFYPSDIAVEWESNGQPENNYKTTPPMLDSDGSFFLYSKLTVDKSRWQQGNVFSCSVMHEALHNHYTQKSLSLSPGK
light: EIVLTQSPGTLSLSPGERATLSCRASSSVSYMYWYQQKPGQAPRLLIYATSNLASGIPDRFSGSGSGTDFTLTISRLEPEDFAVYYCQQWQGNPRTFGGGTKLEIKRTVAAPSVFIFPPSDEQLKSGTASVVCLLNNFYPREAKVQWKVDNALQSGNSQESVTEQDSKDSTYSLSSTLTLSKADYEKHKVYACEVTHQGLSSPVTKSFNRGEC
B2: clone 34, IgG2 / kappa (antibody)
heavy: B1 heavy with D52E, L58I, V66G, M105W
light: B1 light with Q91E
B3: clone 47, IgG2 / kappa (antibody)
heavy: B1 heavy with D52E, L58V, V66T, M105W
light: B1 light with Q91E
B4: clone 53, modified IgG1 / kappa (antibody, V domains shown)
VH: QVQLVQSGAEVKKPGASVKVSCKASGFDIQDTYMHWVRQAPGQGLEWMGRIEPASGHLKYDPKFQERVTMTRDTSTSTVYMELSSLRSEDTAVYYCARSGGLPDKWGQGTTVTVSS
VL: EIVLTQSPGTLSLSPGERATLSCRASSSVSYMYWYQQKPGQAPRLLIYATSNLASGIPDRFSGSGSGTDFTLTISRLEPEDFAVYYCQQWEGNPRTFGGGTKLEIKR
B5: clone 53, IgG2 / kappa (antibody)
heavy: B1 heavy with D52E, V66E, M105K
light: B1 light with Q91E
B6: murine 5C3D11 monoclonal antibody (antibody, V domains shown)
VH: EVQLQQSGAELVKPGASVKLSCTASGFDIQDTYMHWVKQRPEQGLEWIGRIDPASGHTKYDPKFQVKATITTDTSSNTAYLQLSSLTSEDTAVYYCSRSGGLPDVWGAGTTVTVSS
VL: QIVLSQSPAILSASPGEKVTMTCRASSSVSYMYWYQQKPGSSPKPWIYATSNLASGVPDRFSGSGSGTSYSLTISRVEAEDAATYYCQQWSGNPRTFGGGTKLEIK
B7: 12835 (humanized 5C3D11) antibody, IgG format (antibody, V domains shown)
VH: B4 VH with V20L, E52D, L58T, E66V, R72T, A97S, K105V
VL: EIVLTQSPGTLSLSPGERVTMSCRASSSVSYMYWYQQKPGQAPRPWIYATSNLASGVPDRFSGSGSGTDYTLTISRLEPEDFAVYYCQQWSGNPRTFGGGTKLEIK
B8: 1A9 anti-TL1A antibody (antibody, V domains shown)
VH: QIQLVQSGPELKKPGETVKISCKASGYTFTTYGMSWVKQAPGKGLKWMGWMNTYSGVTTYADDFKGRFAFSLETSASTAYMQIDNLKNEDTATYFCAREGYVFDDYYATDYWGQGTSVTVSS
VL: DVLMTQTPLSLPVSLGDQASISCRSSQNIVHSDGNTYLEWYLQKPGQSPKLLIYKVSNRFSGVPDRFSGSGSGTDFTLKISRVEAEDLGIYYCFQGSHVPLTFGAGTKLELK
B9: 1681 anti-TL1A antibody (antibody, V domains shown)
VH: EVQLLESGGGLVQPGKSLRLSCAVSGFTFSTYGMNWVRQAPGKGLEWVSSISGTGRTTYHADSVQGRFTVSRDNSKNILYLQMNSLRADDTAVYFCTKERGDYYYGVFDYWGQGTLVTVSS
VL: DIQMTQSPSTLSASVGDRVTITCRASQTISSWLAWYQQTPEKAPKLLIYAASNLQSGVPSRFSGSGSGTEFTLTISSLQPDDFATYYCQQYHRSWTFGQGTKVEIT

The binders below were run against membrane-associated human TL1A on transfected HEK293 cells (human) (UniProt O95150) (assay: flow cytometry, HEK293 cells expressing human TL1A).

binding, binds:
B1, B2, B3, B4

Each binder was assayed against T1, human TL1A (Fitzgerald, Prod. #30R-AT070) (human) (assay: ELISA on antigen coated plates and ELISA capture of soluble biotinylated antigen).

binding, binds:
B1, B2, B3, B5, B4

Each binder was assayed against T2, TL1A (epitope binning studies) (assay: SPR array epitope binning, pre-mix).

binding, binds:
B6, B7, B8, B9
